Measured values as given in article PMC7048761.
Results are given in words; binding and its absence hold for the method and conditions named. Binding seen in cells or lysates may run through a third protein. Some entries that bind do so weakly or less than the wild type.

Target: T1, SREBP cleavage-activating protein (SCAP) (UniProt Q12770)
T1 sequence: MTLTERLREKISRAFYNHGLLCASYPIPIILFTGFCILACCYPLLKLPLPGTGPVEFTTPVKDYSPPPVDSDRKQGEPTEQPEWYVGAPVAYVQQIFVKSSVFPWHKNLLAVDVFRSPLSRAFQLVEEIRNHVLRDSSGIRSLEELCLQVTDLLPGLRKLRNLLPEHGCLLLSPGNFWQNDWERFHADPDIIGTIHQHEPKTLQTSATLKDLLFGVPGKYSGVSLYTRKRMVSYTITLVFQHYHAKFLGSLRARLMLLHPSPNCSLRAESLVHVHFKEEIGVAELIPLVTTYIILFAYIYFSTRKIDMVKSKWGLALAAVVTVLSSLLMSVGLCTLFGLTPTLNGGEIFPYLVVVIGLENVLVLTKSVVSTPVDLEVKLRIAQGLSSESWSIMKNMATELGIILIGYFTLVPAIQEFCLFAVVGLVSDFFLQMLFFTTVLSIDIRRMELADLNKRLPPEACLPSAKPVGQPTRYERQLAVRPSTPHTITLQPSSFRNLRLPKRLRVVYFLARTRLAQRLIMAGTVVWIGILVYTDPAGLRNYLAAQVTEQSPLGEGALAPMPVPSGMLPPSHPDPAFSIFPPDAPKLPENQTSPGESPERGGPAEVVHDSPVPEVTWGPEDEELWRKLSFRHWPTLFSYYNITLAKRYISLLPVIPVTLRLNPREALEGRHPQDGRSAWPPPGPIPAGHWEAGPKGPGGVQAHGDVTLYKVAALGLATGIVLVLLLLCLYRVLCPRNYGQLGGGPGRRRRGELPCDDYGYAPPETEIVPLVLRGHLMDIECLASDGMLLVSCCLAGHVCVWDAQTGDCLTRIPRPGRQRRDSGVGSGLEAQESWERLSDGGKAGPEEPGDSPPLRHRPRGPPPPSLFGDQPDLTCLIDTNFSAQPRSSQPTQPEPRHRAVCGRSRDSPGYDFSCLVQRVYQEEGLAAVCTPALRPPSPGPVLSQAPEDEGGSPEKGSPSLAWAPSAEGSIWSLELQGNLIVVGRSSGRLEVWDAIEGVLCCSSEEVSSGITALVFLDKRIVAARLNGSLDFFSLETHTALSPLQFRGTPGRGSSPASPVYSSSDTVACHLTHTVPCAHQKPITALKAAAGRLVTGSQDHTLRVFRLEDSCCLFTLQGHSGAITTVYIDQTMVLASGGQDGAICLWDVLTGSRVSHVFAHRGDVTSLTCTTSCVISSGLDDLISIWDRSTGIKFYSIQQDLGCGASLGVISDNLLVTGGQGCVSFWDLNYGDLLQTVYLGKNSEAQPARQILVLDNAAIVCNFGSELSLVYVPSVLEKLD
Experiment: co-IP; HEK293T cells transfected with expression constructs (over-expressed); lysates in NP-40 buffer (150 mM NaCl, 5 mM EDTA, 1% NP-40, 50 mM Tris-HCl, pH 7.4), overnight at 4 °C with antibodies and protein A/G magnetic Dynabeads, three washes with lysis buffer, immunoblot

B1: SREBP Regulating Gene SPRING (C12ORF49) (protein, UniProt Q9H741 1-205)
chain: MVNLAAMVWRRLLRKRWVLALVFGLSLVYFLSSTFKQEERAVRDRNLLQVHDHNQPIPWKVQFNLGNSSRPSNQCRNSIQGKHLITDELGYVCERKDLLVNGCCNVNVPSTKQYCCDGCWPNGCCSAYEYCVSCCLQPNKQLLLERFLNRAAVAFQNLFMAVEDHFELCLAKCRTSSQSVQHENTYRDPIAKYCYGESPPELFPA
- binding: binds
